# Values of other authors in patent US20140294942A1, “ANTIVIRAL PEPTIDES EFFECTIVE AGAINST HEPATITIS C VIRUS” (THE REGENTS OF THE UNIVERSITY OF CALIFORNIA, priority 2011, published 2014).
# At least one structure is not confirmed: it was looked up by name or label, or the drawing left a doubt.
# Tested on: HCV
# Conditions: reported in the literature; system not given; read-out: IC50 in Cell Culture; cited from earlier work
compound,measurement,value
CC(C)(C)NC(=O)N[C@H](C(=O)N1C[C@H]2[C@@H]([C@H]1C(=O)NC(CC1CCC1)C(=O)C(N)=O)C2(C)C)C(C)(C)C (stereo partly shown) [Boceprevir],IC50,200 nM
